Results are given in words; binding and its absence hold for the method and conditions named. A result given as binding can be weak or reduced; the word gives no strength. For part of these data: Sequences can lack the tags named with a protein.
Key:
[1] = molecular target: His:BPM3 (Arabidopsis thaliana) (UniProt O22286); experiment: pull-down; His:BPM proteins kept on Ni-NTA agarose beads, incubated with eluted GST-tagged proteins in 0.1 M Tris pH 7.5, 150 mM NaCl, 0.5% NP-40, PMSF, 2 h at 4°C, three washes; blots with anti-GST and anti-His; both purified
[2] = molecular target: His:BPM1 (Arabidopsis thaliana) (UniProt Q8L765); experiment: as above
[3] = molecular target: His:BPM5 (Arabidopsis thaliana) (UniProt Q1EBV6); experiment: as above
[4] = molecular target: T1, BPM4 (yeast two-hybrid fusion) (Arabidopsis thaliana) (UniProt Q9SRV1); experiment: two-hybrid; yeast; bait vector pBTM112-D9, prey plasmid pACT2; growth on SDIV medium without uracil and His; spots photographed 1 week after plating; which partner was bait is not stated
T1 sequence: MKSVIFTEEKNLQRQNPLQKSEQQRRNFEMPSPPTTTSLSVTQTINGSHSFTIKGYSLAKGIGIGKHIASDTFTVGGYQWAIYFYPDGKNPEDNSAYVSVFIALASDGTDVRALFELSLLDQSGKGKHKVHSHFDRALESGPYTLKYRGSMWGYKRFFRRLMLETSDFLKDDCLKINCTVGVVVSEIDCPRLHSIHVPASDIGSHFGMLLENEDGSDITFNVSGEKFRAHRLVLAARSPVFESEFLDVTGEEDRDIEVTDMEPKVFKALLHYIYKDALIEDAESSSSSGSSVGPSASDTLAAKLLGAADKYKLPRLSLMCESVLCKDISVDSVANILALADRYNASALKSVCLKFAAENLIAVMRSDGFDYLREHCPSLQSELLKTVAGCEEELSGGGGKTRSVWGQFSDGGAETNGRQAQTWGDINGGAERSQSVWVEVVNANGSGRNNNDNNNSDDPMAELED

Sequences of proteins named here, by UniProt entry; tags and fusion partners are left off. A change or cut given only in a name is not applied to a line headed by its entry.
UniProt Q9LDW5: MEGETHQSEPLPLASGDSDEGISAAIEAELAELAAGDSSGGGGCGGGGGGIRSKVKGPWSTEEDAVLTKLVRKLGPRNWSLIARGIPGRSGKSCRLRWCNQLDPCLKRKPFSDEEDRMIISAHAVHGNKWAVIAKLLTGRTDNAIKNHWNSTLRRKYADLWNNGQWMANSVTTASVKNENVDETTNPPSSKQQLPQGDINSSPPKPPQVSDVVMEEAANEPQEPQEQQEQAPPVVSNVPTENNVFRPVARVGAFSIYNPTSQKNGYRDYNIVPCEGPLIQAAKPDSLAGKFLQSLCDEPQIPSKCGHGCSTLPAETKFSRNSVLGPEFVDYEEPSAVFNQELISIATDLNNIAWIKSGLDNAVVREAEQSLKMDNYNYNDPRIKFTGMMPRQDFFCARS

[5] = molecular target: T2, BPM6 (yeast two-hybrid fusion) (Arabidopsis thaliana) (UniProt A1L4W5); experiment: as above
T2 sequence: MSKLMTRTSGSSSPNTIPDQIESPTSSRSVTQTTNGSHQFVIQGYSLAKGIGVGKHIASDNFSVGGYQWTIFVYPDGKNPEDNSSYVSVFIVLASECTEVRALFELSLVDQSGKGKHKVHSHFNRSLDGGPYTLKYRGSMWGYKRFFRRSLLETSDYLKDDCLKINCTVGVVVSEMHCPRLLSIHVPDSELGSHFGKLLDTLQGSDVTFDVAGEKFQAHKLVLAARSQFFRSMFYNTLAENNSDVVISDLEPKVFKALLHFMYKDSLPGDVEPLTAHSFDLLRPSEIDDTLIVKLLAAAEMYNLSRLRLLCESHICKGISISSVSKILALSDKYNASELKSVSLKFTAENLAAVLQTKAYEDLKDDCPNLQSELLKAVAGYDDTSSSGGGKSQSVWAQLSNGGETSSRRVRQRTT

[6] = molecular target: T3, BPM5 (yeast two-hybrid fusion) (Arabidopsis thaliana) (UniProt Q1EBV6); experiment: as above
T3 sequence: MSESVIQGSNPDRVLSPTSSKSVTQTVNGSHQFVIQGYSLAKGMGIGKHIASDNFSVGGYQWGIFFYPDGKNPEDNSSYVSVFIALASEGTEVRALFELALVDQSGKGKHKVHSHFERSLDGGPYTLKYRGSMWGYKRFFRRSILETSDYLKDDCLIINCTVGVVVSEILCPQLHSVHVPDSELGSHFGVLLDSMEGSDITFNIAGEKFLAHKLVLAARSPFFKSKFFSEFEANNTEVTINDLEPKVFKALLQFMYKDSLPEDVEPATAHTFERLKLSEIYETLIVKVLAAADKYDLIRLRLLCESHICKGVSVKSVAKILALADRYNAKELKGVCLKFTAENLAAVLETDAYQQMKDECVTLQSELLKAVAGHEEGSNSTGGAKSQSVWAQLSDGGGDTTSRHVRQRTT

[7] = molecular target: T4, BPM3 (yeast two-hybrid fusion) (Arabidopsis thaliana) (UniProt O22286); experiment: as above
T4 sequence: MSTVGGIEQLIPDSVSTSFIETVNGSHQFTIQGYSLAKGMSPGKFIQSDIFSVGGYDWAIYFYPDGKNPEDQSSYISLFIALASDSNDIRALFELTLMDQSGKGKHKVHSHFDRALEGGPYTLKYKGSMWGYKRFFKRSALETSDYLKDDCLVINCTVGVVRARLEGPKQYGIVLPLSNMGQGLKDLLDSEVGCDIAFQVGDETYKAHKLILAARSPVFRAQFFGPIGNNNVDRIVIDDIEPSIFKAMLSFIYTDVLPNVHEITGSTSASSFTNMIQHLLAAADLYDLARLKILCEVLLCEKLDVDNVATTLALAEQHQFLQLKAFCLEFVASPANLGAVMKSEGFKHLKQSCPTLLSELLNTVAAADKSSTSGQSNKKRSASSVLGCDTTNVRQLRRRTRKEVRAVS

[8] = molecular target: T5, BPM1 (yeast two-hybrid fusion) (Arabidopsis thaliana) (UniProt Q8L765); experiment: as above
T5 sequence: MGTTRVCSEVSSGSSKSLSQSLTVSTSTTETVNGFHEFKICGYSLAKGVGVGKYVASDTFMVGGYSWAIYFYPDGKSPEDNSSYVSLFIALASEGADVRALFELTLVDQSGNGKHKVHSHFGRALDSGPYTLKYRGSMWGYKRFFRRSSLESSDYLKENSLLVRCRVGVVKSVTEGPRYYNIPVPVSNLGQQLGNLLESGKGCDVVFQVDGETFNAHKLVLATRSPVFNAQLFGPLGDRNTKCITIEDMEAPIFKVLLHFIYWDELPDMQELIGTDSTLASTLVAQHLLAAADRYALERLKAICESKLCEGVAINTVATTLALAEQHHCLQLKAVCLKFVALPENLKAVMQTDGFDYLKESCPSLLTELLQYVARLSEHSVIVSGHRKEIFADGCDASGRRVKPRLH

[9] = molecular target: T6, BPM2 (yeast two-hybrid fusion) (Arabidopsis thaliana) (UniProt Q9M8J9); experiment: as above
T6 sequence: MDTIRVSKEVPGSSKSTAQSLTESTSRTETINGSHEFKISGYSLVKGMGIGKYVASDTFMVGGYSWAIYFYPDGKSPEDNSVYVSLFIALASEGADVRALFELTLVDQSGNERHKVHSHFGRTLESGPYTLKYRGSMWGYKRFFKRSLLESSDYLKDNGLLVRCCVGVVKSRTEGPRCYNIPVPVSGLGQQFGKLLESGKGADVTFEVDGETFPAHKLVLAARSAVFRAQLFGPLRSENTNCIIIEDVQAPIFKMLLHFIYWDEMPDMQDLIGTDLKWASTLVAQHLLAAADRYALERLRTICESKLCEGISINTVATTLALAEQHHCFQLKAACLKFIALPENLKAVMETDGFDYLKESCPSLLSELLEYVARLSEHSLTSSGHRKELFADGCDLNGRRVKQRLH

Measured: binding

GST:MYB109 (from UniProt Q9LDW5)
binds: [1] | [2] | [3]

MYB109 (yeast two-hybrid fusion) (from UniProt Q9LDW5)
binds: [4] | [5] | [6] | [7] | [8] | [9]

Source: article PMC8417012
